In this experiment the target is T1, C2b (large fragment of C2, VWA-SP) with S679A (human) (UniProt P06681).
T1 sequence: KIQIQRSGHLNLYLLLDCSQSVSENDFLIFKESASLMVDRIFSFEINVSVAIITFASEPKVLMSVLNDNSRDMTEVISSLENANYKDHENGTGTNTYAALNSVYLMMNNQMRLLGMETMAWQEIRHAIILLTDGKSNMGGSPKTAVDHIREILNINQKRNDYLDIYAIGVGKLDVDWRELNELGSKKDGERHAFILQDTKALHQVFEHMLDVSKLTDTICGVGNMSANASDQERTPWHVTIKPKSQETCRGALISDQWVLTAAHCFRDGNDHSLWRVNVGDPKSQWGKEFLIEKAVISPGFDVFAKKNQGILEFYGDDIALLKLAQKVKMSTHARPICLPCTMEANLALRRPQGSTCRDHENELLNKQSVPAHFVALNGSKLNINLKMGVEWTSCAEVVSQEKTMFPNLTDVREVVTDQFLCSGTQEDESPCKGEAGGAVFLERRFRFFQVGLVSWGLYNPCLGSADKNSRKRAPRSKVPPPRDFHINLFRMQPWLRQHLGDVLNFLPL
As to the kind of experiment: cryo-EM structure; SEC-purified C4b-C3 duo-nanobody complex, C2(S679A) and activated C1s(DDDDK) mixed 25:5:1 by volume, 30 sec at room temperature; 20 mM HEPES pH 7.4, 150 mM NaCl, 2 mM MgCl2; C4b2b (4.2 A) and C4b2b-C3 (3.5 A) maps from the same data set; both purified.

Results are given in words; binding and its absence hold for the method and conditions named. Binding can be weak; no strength is given.

With complement C3 (human), the binding result is listed as “binds”.

These data come from paper PMC12847986.
